Laboratory results: the supplement of paper PMC3334620
In all, about 33,000 sequences were measured (“E-score (-0.5 to 0.5)”: median about -0.016, highest 2% from about 0.3 on). The list shows a part of the results.

These sequences were tested against T1, Yer184c (UniProt P39961) (assay: PBM E-score (8-mer binding enrichment) (E-score (-0.5 to 0.5)); higher = stronger / more preferred TF binding). Settings: protein concentration: 100 nM; construct: GST-full length.
T1 sequence: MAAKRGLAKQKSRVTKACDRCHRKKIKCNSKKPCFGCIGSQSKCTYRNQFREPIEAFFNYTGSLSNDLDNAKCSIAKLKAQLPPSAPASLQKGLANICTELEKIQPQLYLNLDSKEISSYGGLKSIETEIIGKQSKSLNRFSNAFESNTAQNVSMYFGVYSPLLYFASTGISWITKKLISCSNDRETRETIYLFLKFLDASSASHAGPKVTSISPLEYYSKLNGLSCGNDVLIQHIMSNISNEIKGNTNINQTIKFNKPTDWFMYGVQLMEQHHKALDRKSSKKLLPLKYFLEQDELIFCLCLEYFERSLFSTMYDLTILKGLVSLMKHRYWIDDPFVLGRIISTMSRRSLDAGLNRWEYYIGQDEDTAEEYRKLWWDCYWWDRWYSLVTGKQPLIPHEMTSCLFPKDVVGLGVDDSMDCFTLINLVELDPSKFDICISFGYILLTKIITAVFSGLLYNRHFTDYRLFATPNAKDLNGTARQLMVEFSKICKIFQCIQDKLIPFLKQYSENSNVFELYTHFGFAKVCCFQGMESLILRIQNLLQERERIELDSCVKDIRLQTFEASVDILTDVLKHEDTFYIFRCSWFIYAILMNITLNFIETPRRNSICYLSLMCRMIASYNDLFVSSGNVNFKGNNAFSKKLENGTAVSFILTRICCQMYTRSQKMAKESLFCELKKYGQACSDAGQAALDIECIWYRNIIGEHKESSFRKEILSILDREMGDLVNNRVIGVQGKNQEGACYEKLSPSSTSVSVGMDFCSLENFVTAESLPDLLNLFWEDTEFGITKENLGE
Method in brief: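 The E-score, a modified Wilcoxon-Mann-Whitney statistic, was computed by the Universal PBM Analysis Suite for every ungapped eight-base word pooled with its reverse complement. Scans behind it were normalised with masliner after bound GST-tagged yeast transcription factors were detected with fluorescent anti-GST. The proteins, at about 100-200 nM, had been applied to universal all-10-mer Agilent arrays made double-stranded by primer extension.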

Sequence | PBM E-score
GCAGAAGC | -0.0141
GACGCTCA | -0.128
ACAGTTAT | -0.0291
AGCTAGCA | 0.0286
GACCCCAA | -0.24
CAGCGCAA | -0.162
AAGACATG | -0.262
GGCCCAAA | 0.11
ACTGGACC | -0.0788
GAATGTGC | -0.0995
ATCATGAA | 0.0581
CGTAAGCA | -0.252
CAGTCCAG | -0.223
AGATAAAC | 0.266
CGGGCCAG | -0.0224
CTTGGGGC | -0.207
AAGCGTAT | -0.222
AATTAACT | 0.0498
AAGCGCTA | 0.0496
CAGCCTAC | -0.00813
CGCGGGCA | 0.204
CCTCGCCG | -0.124
CTCTACGC | -0.0175
ACGGGCGC | 0.0508
CGCATTAG | -0.101

Sequence | PBM E-score
CTTACGAC | -0.104
AAAGTCAG | -0.09
CGTGCGAG | 0.0827
AAAACAAG | 0.0135
AGCACGTA | -0.211
GCCCCTAA | -0.26
CAGTGTGG | -0.35
CAAACTGC | -0.0352
ACGCGTAC | -0.0315
GATACGCC | 0.0847
ACAATGTA | -0.00057
TCACATAA | 0.0654
ATCGTTAC | -0.0776
GCCCGAGC | 0.142
ATAGGTTG | -0.156
ACCACGCT | -0.0936
GAGAGTAA | 0.194
CCCCCATA | -0.351
GCCCGTTA | -0.132
ATATGCTG | -0.21
CAAGATGC | 0.171
GCAATACA | 0.115
CAAGTATC | -0.053
CATCAGGC | -0.206
GCTTCGTA | -0.148

Sequence | PBM E-score
ACATCGCA | -0.156
ATAAAATC | 0.152
ACGAGGTG | -0.0563
AGTCACTA | -0.0653
AACTTGAA | 0.199
CTTTCTGA | 0.124
AAATCACC | 0.128
GCACAGGA | 0.0901
GTCAAAGA | 0.0783
AATCCGCT | -0.0489
CCCTGCGA | -0.156
CGTCGCAA | 0.00524
CGTCGGCA | 0.221
CGGCGTGA | 0.16
CCTACCAA | 0.0704
AGGGTGCA | -0.234
CTCGGTTC | 0.131
AAGTATTC | 0.0574
AGAGTGCT | -0.265
CAGCTCAA | 0.0261
ATTTGGCC | 0.0904
AACGCCTT | -0.105
ATCATAAT | 0.0657
CGGCGTTA | 0.243
GGATATAC | 0.148

Taken from the listing (2 entries):
Sequence | PBM E-score
CGTCGGCA | 0.221
CGGCGTGA | 0.16

More records follow:

Sequence | PBM E-score
TACGTAGA | -0.057
ACAGCTCA | -0.225
CATTCCGC | -0.0761
ATAGACAG | 0.0916
GATAGACC | 0.00551
CACCAGGC | -0.103
ATAAAAAC | 0.305
TATAAGGA | 0.218
TAAGTAGA | 0.0987
CACCTAAG | -0.037
ATTGAGCC | 0.081
CAGTTTGC | -0.0308
CATAAAGG | 0.102
CCTCCTAA | -0.188
CAGTCTCC | -0.114
ATTCACGC | -0.0512
ATGATGCC | 0.165
GACTACGA | -0.105
AACCGGGC | 0.187
GAAGCCCA | -0.221
GATGTACC | -0.0945
CCGGTGCA | 0.227
AGCTGTAA | -0.109
CCGGCAGG | 0.181
CTCATATC | -0.147

Sequence | PBM E-score
CCTTTGAG | -0.211
TATGGTCA | -0.0463
CCCTTCAG | -0.193
CACCGATA | 0.142
ATCTCAGA | -0.00425
AGTTATGG | -0.0312
CCGATTAG | 0.0544
AACATAAC | 0.0818
ATCCTGGG | -0.0354
CCATTTAG | -0.135
CACCTGGA | -0.205
TCTTGTAA | 0.152
CTCGGTTA | 0.173
ACGGAAGG | 0.0281
GGTCTGAC | -0.0468
CTGTCCAA | 0.00934
CGAAAGTA | -0.0329
CTTACTTC | 0.0836
CCACCCTA | -0.0654
GGGCGCCA | 0.00505
CCATTTCG | -0.171
GACTCGGA | 0.194
CCTAGAGA | -0.104
CCTACGAG | -0.154
TCGGCGCA | 0.133

Sequence | PBM E-score
GCAGCTGC | 0.19
CTAGTGTA | -0.0198
AAAAACCC | -0.0236
GATGCTCC | -0.0063
CTATCAAA | 0.0491
CTCCGGGC | 0.0789
CCCCGAGC | -0.0347
TCAAGCCA | -0.0394
AGATGCTG | -0.219
GCGTGCCC | -0.282
GAAAGGTA | 0.0692
CTCAAAAA | 0.0114
AAACTAGG | -0.105
TAAGAAAA | 0.148
CGTTCCAA | 0.0754
GTTGAACA | -0.0214
GGTCCCCA | -0.226
AGCCCTCA | -0.107
CCACAAAC | 0.148
GCCCGTAC | -0.16
GTTTCATA | -0.0671
CGCAACGA | 0.0385
ATTTCAGA | 0.0275
AACTTCGG | 0.287
CAGATGCG | -0.0328

Sequence | PBM E-score
TTCGGCAA | 0.336
ACTCGACA | 0.153
CTTTATAA | 0.0517
ACTGGTAT | 0.0101
ACCGGGTC | 0.0636
CTACGATC | -0.126
ACAATTGC | -0.0498
ACATTTAC | -0.0135
CGGCGTAG | 0.021
CCTAGTGA | -0.0968
ATTCAGAC | 0.0247
CTAAAGGC | -0.0965
GGGCATAC | -0.129
CGTTTTTA | 0.2
CTCTGTCA | -0.0765
GGTCTGCA | -0.0184
ACGCTCAT | -0.196
CGCTACGC | -0.18
AAAGGGAC | -0.119
ATTTCGGG | 0.157
AATTCGTG | 0.0586
ATGCACAC | -0.0001

Some of the entries above in another layout.
Sequence	PBM E-score
GATGTACC	-0.0945
CCGGTGCA	0.227
AGCTGTAA	-0.109
CCGGCAGG	0.181
CTCATATC	-0.147
CCTTTGAG	-0.211
TATGGTCA	-0.0463
CCCTTCAG	-0.193
CACCGATA	0.142
ATCTCAGA	-0.00425
AGTTATGG	-0.0312
CCGATTAG	0.0544
AACATAAC	0.0818
ATCCTGGG	-0.0354
CCATTTAG	-0.135
CACCTGGA	-0.205
TCTTGTAA	0.152
CTCGGTTA	0.173
ACGGAAGG	0.0281
GGTCTGAC	-0.0468
CTGTCCAA	0.00934
CGAAAGTA	-0.0329
CTTACTTC	0.0836
CCACCCTA	-0.0654
GGGCGCCA	0.00505
CCATTTCG	-0.171
GACTCGGA	0.194
CCTAGAGA	-0.104
CCTACGAG	-0.154
TCGGCGCA	0.133
GCAGCTGC	0.19
CTAGTGTA	-0.0198
AAAAACCC	-0.0236
GATGCTCC	-0.0063
CTATCAAA	0.0491
CTCCGGGC	0.0789
CCCCGAGC	-0.0347
TCAAGCCA	-0.0394
AGATGCTG	-0.219
GCGTGCCC	-0.282
GAAAGGTA	0.0692
CTCAAAAA	0.0114
